{"source": "PubChem BioAssay AID652243 (Drosophila RNAi Screening Center, 2013)", "aim": "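Fly genes required for human androgen receptor driven transcription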 (primary screen)", "cell system": "Drosophila S2R+ cells", "reagent": "long dsRNA against Drosophila genes", "duration": "72 h (48 h, then 24 h hormone)", "challenge": "synthetic androgen R1881 at 10 nM for 24 h", "measurement": "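Firefly light from an androgen-responsive reporter and Renilla control light per well, raw and unnormalised, for each of two replicates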", "reading the numbers": "firefly reporter light: higher = more light from androgen-responsive reporter; Renilla control light: higher = more constitutive control signal (cell number, transfection)", "active means": "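Across duplicate plates, a knock-down whose log firefly/Renilla ratio shifted a set fold down or up from the GFP/LacZ control mean was a hit; the downward cut appears as both 1.5 and 3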", "meaning of the calls": "active = hit: reporter lowered or raised; inactive = no hit", "note": "The screen tested about 24,000 reagents; shown is a random part of those that have a named target and a result. Of all reagents, 246 (1%) are marked active. 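Plates not normalised; calls are printed but the firefly/Renilla ratio behind them is not deposited; fold cut for lowering reported inconsistently.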 Raw values vary from plate to plate and are shown uncorrected. The record does not give: the amount of reagent."}
{"predicted target": "PGRP-LE (Peptidoglycan recognition protein LE)", "amplicon": "DRSC20137", "firefly reporter light, replicate 1": 96646, "firefly reporter light, replicate 2": 1.48e5, "Renilla control light, replicate 1": 7.39e5, "Renilla control light, replicate 2": 7.58e5, "Outcome": "inactive"}
{"predicted target": "CG15233", "amplicon": "DRSC04967", "firefly reporter light, replicate 1": 1.59e6, "firefly reporter light, replicate 2": 1.55e6, "Renilla control light, replicate 1": 1.73e6, "Renilla control light, replicate 2": 2.17e6, "Outcome": "inactive"}
{"predicted target": "CG10962", "amplicon": "DRSC18421", "firefly reporter light, replicate 1": 93948, "firefly reporter light, replicate 2": 1.03e5, "Renilla control light, replicate 1": 8.86e5, "Renilla control light, replicate 2": 6.36e5, "Outcome": "inactive"}
{"predicted target": "CG10962", "amplicon": "DRSC29512", "firefly reporter light, replicate 1": 2.26e5, "firefly reporter light, replicate 2": 2.64e5, "Renilla control light, replicate 1": 3.11e5, "Renilla control light, replicate 2": 3.11e5, "Outcome": "inactive"}
{"predicted target": "CG2113", "amplicon": "DRSC08554", "firefly reporter light, replicate 1": 1.52e5, "firefly reporter light, replicate 2": 81641, "Renilla control light, replicate 1": 1.50e6, "Renilla control light, replicate 2": 8.63e5, "Outcome": "inactive"}
{"predicted target": "CG2113", "amplicon": "DRSC29350", "firefly reporter light, replicate 1": 6.11e5, "firefly reporter light, replicate 2": 5.73e5, "Renilla control light, replicate 1": 1.35e6, "Renilla control light, replicate 2": 1.35e6, "Outcome": "inactive"}
{"predicted target": "Ir75b (Ionotropic receptor 75b)", "amplicon": "DRSC10189", "firefly reporter light, replicate 1": 2.21e5, "firefly reporter light, replicate 2": 1.78e5, "Renilla control light, replicate 1": 1.81e6, "Renilla control light, replicate 2": 1.69e6, "Outcome": "inactive"}
{"predicted target": "CG1889", "amplicon": "DRSC18195", "firefly reporter light, replicate 1": 1.60e5, "firefly reporter light, replicate 2": 1.27e5, "Renilla control light, replicate 1": 1.26e6, "Renilla control light, replicate 2": 1.24e6, "Outcome": "inactive"}
{"predicted target": "CG1889", "amplicon": "DRSC27433", "firefly reporter light, replicate 1": 2.57e5, "firefly reporter light, replicate 2": 2.78e5, "Renilla control light, replicate 1": 6.13e5, "Renilla control light, replicate 2": 7.08e5, "Outcome": "inactive"}
{"predicted target": "pxb", "amplicon": "DRSC13110", "firefly reporter light, replicate 1": 1.64e5, "firefly reporter light, replicate 2": 1.36e5, "Renilla control light, replicate 1": 1.74e5, "Renilla control light, replicate 2": 2.17e5, "Outcome": "inactive"}
{"predicted target": "pxb", "amplicon": "DRSC14996", "firefly reporter light, replicate 1": 10640, "firefly reporter light, replicate 2": 15381, "Renilla control light, replicate 1": 57290, "Renilla control light, replicate 2": 95522, "Outcome": "inactive"}
{"predicted target": "pxb", "amplicon": "DRSC14997", "firefly reporter light, replicate 1": 2.37e5, "firefly reporter light, replicate 2": 1.88e5, "Renilla control light, replicate 1": 2.44e6, "Renilla control light, replicate 2": 1.98e6, "Outcome": "inactive"}
{"predicted target": "pxb", "amplicon": "DRSC22225", "firefly reporter light, replicate 1": 9.56e5, "firefly reporter light, replicate 2": 9.07e5, "Renilla control light, replicate 1": 2.05e6, "Renilla control light, replicate 2": 2.01e6, "Outcome": "inactive"}
{"predicted target": "pxb", "amplicon": "DRSC25214", "firefly reporter light, replicate 1": 4.92e5, "firefly reporter light, replicate 2": 4.78e5, "Renilla control light, replicate 1": 5.11e5, "Renilla control light, replicate 2": 5.88e5, "Outcome": "inactive"}
{"predicted target": "chrb (charybde)", "amplicon": "DRSC11335", "firefly reporter light, replicate 1": 2.83e5, "firefly reporter light, replicate 2": 2.60e5, "Renilla control light, replicate 1": 2.40e6, "Renilla control light, replicate 2": 2.30e6, "Outcome": "inactive"}
{"predicted target": "chrb (charybde)", "amplicon": "DRSC25273", "firefly reporter light, replicate 1": 1.31e6, "firefly reporter light, replicate 2": 6.88e5, "Renilla control light, replicate 1": 8.82e5, "Renilla control light, replicate 2": 6.66e5, "Outcome": "inactive"}
{"predicted target": "da", "amplicon": "DRSC03517", "firefly reporter light, replicate 1": 1.54e5, "firefly reporter light, replicate 2": 85826, "Renilla control light, replicate 1": 2.14e6, "Renilla control light, replicate 2": 9.96e5, "Outcome": "inactive"}
{"predicted target": "Cyp1 (Cyclophilin 1)", "amplicon": "DRSC20234", "firefly reporter light, replicate 1": 99017, "firefly reporter light, replicate 2": 85197, "Renilla control light, replicate 1": 3.96e5, "Renilla control light, replicate 2": 5.37e5, "Outcome": "inactive"}
{"predicted target": "Cyp1 (Cyclophilin 1)", "amplicon": "DRSC27284", "firefly reporter light, replicate 1": 6.13e5, "firefly reporter light, replicate 2": 5.70e5, "Renilla control light, replicate 1": 7.11e5, "Renilla control light, replicate 2": 7.36e5, "Outcome": "inactive"}
{"predicted target": "Ubc10 (Ubiquitin conjugating enzyme 10)", "amplicon": "DRSC07568", "firefly reporter light, replicate 1": 77508, "firefly reporter light, replicate 2": 67912, "Renilla control light, replicate 1": 1.07e6, "Renilla control light, replicate 2": 1.07e6, "Outcome": "inactive"}
{"predicted target": "Ubc10 (Ubiquitin conjugating enzyme 10)", "amplicon": "DRSC23795", "firefly reporter light, replicate 1": 4.76e5, "firefly reporter light, replicate 2": 2.23e5, "Renilla control light, replicate 1": 7.29e5, "Renilla control light, replicate 2": 2.42e5, "Outcome": "inactive"}
